Source: publication PMC8486766
Results are given in words; binding and its absence hold for the method and conditions named. In cells and extracts the contact can be indirect. A yes stands for co-enrichment or nearness to the bait. Other partners may have been found.

Chains of the proteins cited; added tags and fusions are not shown.
UniProt P51608: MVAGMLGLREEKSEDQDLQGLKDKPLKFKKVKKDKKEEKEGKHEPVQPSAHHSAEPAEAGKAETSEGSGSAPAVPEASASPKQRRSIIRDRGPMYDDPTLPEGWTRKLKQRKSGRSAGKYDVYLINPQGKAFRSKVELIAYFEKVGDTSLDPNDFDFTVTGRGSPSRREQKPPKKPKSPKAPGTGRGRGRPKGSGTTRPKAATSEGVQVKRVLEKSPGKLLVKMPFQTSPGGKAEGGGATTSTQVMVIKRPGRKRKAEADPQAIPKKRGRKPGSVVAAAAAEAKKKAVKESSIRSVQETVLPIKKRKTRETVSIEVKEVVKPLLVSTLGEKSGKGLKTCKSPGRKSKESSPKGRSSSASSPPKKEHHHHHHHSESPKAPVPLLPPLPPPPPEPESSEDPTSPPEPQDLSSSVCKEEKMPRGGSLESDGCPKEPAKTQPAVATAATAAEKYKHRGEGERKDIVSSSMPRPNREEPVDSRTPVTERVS
UniProt Q92841: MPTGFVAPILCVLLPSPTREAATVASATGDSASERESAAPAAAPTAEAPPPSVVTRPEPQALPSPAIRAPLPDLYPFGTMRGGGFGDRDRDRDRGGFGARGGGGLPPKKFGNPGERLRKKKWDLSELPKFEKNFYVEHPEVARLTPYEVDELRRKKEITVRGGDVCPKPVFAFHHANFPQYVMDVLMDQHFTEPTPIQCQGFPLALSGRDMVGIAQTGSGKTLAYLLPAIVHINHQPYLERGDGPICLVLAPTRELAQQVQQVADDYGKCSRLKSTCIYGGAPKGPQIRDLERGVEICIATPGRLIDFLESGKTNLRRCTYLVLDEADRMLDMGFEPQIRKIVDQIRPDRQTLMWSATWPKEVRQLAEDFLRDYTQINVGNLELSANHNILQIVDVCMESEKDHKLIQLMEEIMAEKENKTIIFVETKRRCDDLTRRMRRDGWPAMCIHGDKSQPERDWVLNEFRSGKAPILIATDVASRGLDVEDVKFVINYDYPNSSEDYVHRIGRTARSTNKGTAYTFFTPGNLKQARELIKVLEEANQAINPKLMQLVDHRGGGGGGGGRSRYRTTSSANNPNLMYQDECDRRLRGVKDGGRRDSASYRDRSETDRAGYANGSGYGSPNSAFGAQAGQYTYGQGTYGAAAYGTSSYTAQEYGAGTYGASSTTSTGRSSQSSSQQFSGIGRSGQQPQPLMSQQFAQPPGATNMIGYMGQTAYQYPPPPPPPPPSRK

Target: FLAG-tagged full-length (FL) MeCP2 (human) (UniProt P51608)
Assay: affinity purification with mass spectrometry; anti-FLAG IP from the HMW extract (nuclease-released chromatin pellet, low salt) of HEK293T cells expressing FLAG-MeCP2; co-purifying bands of a Coomassie-stained gel identified by MS

binding: binds
Substance: DDX17 (from UniProt Q92841 1-729)
